Values from PubChem BioAssay AID1159579 (Peter MacCallum Cancer Centre, 2015).

Screen: 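Follow-up screen seeking modulators of motility in lymphatic endothelial cells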 (follow-up of hits)
System: human dermal lymphatic endothelial cells
Knock-down reagent: single siRNA against human genes, 25 nM
Read-out: 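Scratch wound imaging measuring area filled by moving cells plus nuclei number, averaged over two wells and scaled to mock-transfected controls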
Scale: migration relative to mock: higher = more migration into the scratch; mean nuclei count: higher = more cells remaining
Active means: 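Called active when the migration ratio is 0.6 or lower (impaired) or 1.3 or higher (accelerated), but inactive whenever the mean nuclei count falls under 3300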
Calls: active = migration changed (impaired or accelerated); inactive = no migration change, or too few cells
The deposit covers about 2,000 reagents; shown is a random part of them. Over the whole deposit, 549 (27%) got an active call. 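Some migration ratios are negative; siRNAs with too few cells are inactive whatever their migration ratio.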 The numbers tell different reagents against one gene apart. No sequences are given here. The record does not give: the time to read-out.

migration relative to mock | migration and cell number class | mean nuclei count | Call | Gene | reagent no.
0.94 | no change in migration or cell number | 6156 | inactive | ERLIN1 | 1
0.52 | migration reduced | 4806 | active | ERLIN1 | 2
0.68 | no change in migration or cell number | 4198 | inactive | ERLIN1 | 3
1.02 | no change in migration or cell number | 5767 | inactive | ERLIN1 | 4
0.82 | no change in migration or cell number | 6540 | inactive | CSGALNACT1 | 1
0.86 | no change in migration or cell number | 6126 | inactive | CSGALNACT1 | 2
0.51 | migration reduced | 6112 | active | CSGALNACT1 | 3
1.15 | no change in migration or cell number | 6938 | inactive | CSGALNACT1 | 4
0.57 | migration reduced | 5499 | active | S100A8 | 1
0.82 | no change in migration or cell number | 6826 | inactive | S100A8 | 2
0.71 | no change in migration or cell number | 5910 | inactive | S100A8 | 3
0.9 | no change in migration or cell number | 5474 | inactive | S100A8 | 4
1.15 | no change in migration or cell number | 6624 | inactive | RTL8B | 1
0.82 | no change in migration or cell number | 5642 | inactive | RTL8B | 2
1.04 | no change in migration or cell number | 5372 | inactive | RTL8B | 3
1.08 | no change in migration or cell number | 5832 | inactive | RTL8B | 4
0.97 | no change in migration or cell number | 6488 | inactive | WDFY2 | 1
0.42 | migration reduced | 5116 | active | WDFY2 | 2
1.04 | no change in migration or cell number | 5607 | inactive | WDFY2 | 3
0.68 | no change in migration or cell number | 4074 | inactive | WDFY2 | 4

Reprinted from the listing for reference:
migration relative to mock | migration and cell number class | mean nuclei count | Call | Gene | reagent no.
0.94 | no change in migration or cell number | 6156 | inactive | ERLIN1 | 1
0.52 | migration reduced | 4806 | active | ERLIN1 | 2
